Reference: article PMC4447969

Amino acid sequences for entries named in this document (tags omitted). Residues count along the entry.
UniProt Q9UNS2, residues 21-423: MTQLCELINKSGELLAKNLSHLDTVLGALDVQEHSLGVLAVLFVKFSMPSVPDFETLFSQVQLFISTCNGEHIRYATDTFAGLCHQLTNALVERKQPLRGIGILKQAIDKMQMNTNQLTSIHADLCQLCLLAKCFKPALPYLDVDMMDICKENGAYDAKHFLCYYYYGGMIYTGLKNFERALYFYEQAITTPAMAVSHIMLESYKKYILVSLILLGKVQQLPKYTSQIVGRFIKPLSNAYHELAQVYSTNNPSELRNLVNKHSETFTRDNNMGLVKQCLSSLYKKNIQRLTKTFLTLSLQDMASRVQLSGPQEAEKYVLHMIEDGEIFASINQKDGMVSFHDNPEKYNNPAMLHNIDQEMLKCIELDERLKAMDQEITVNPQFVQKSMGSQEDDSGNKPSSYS
UniProt P61201: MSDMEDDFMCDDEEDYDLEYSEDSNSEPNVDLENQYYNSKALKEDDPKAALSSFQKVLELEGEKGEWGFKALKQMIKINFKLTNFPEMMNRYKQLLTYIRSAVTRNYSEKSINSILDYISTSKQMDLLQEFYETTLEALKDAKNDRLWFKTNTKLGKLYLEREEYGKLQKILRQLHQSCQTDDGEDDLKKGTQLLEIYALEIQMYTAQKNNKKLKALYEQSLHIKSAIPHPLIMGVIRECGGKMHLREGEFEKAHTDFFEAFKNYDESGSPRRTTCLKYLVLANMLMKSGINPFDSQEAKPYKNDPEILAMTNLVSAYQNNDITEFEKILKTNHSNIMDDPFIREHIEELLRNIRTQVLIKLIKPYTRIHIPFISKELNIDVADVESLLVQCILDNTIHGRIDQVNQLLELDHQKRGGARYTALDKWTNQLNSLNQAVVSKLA
UniProt P22314: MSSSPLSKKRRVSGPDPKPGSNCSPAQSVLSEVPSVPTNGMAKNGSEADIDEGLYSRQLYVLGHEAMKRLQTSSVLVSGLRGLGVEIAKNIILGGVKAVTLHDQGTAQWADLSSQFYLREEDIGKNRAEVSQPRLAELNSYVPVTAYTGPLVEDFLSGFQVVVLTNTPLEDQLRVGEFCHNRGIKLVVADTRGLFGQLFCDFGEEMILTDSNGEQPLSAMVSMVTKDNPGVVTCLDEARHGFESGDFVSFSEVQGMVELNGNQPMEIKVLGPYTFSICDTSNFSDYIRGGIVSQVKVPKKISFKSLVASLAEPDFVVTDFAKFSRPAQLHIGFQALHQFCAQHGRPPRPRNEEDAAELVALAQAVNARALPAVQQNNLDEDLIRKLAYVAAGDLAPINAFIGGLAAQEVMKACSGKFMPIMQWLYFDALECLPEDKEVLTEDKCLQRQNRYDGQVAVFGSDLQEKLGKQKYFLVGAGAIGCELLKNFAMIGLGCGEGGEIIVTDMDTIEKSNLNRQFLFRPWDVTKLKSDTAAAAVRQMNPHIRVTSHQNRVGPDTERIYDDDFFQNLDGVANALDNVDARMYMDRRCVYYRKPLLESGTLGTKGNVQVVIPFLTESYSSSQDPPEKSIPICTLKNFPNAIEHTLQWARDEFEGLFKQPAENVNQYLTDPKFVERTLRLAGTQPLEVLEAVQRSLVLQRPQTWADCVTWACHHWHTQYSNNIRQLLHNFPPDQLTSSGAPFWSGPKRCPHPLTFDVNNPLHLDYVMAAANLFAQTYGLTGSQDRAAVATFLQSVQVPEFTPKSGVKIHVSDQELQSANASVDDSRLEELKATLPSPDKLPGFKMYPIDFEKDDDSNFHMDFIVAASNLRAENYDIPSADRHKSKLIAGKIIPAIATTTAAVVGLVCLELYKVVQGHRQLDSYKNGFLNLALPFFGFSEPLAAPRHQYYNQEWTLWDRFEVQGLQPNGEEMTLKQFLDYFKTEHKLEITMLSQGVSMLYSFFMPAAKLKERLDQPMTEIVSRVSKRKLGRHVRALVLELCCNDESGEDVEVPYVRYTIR
UniProt Q15843, residues 1-76: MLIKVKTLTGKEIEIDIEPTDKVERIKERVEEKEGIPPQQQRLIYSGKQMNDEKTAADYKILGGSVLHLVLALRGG
UniProt Q86VP6: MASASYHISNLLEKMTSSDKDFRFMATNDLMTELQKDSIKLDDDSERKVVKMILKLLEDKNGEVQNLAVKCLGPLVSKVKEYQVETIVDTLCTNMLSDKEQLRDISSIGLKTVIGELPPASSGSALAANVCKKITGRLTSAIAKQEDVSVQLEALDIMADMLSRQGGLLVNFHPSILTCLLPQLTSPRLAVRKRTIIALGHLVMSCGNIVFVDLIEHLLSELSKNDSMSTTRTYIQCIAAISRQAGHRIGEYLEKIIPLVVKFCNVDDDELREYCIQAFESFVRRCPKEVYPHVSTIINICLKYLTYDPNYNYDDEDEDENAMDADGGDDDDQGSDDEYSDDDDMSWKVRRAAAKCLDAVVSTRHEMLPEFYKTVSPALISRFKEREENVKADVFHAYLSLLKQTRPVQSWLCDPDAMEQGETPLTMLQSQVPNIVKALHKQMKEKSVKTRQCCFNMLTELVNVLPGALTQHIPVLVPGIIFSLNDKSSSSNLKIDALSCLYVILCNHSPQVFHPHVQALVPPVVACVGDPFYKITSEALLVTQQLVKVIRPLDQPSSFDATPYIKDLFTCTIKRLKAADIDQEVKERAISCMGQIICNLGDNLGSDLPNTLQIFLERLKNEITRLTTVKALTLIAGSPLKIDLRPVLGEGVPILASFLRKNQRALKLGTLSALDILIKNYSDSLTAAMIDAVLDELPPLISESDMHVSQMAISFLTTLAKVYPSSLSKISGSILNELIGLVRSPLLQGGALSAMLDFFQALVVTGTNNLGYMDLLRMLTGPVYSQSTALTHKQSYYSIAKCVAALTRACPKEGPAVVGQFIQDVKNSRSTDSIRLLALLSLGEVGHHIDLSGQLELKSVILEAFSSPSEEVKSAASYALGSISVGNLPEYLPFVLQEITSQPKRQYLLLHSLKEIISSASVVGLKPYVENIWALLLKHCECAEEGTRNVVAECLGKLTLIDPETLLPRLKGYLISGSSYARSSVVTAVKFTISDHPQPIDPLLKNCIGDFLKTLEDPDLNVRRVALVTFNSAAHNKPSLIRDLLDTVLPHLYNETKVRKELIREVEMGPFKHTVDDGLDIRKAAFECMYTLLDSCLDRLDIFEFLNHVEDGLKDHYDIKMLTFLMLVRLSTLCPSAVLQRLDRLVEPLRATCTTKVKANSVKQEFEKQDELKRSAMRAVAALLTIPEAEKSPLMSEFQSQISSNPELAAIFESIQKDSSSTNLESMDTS

B1: endogenous Pdcd4 (programmed cell death 4) (protein, UniProt Q53EL6 1-469)
chain: MDVENEQILNVNPADPDNLSDSLFSGDEENAGTEEIKNEINGNWISASSINEARINAKAKRRLRKNSSRDSGRGDSVSDSGSDALRSGLTVPTSPKGRLLDRRSRSGKGRGLPKKGGAGGKGVWGTPGQVYDVEEVDVKDPNYDDDQENCVYETVVLPLDERAFEKTLTPIIQEYFEHGDTNEVAEMLRDLNLGEMKSGVPVLAVSLALEGKASHREMTSKLLSDLCGTVMSTTDVEKSFDKLLKDLPELALDTPRAPQLVGQFIARAVGDGILCNTYIDSYKGTVDCVQARAALDKATVLLSMSKGGKRKDSVWGSGGGQQSVNHLVKEIDMLLKEYLLSGDISEAEHCLKELEVPHFHHELVYEAIIMVLESTGESTFKMILDLLKSLWKSSTITVDQMKRGYERIYNEIPDINLDVPHSYSVLERFVEECFQAGIISKQLRDLCPSRGRKRFVSEGDGGRLKPESY

Target: T1, IBtkα-FLAG (human inhibitor of Bruton's tyrosine kinase isoform α, aa 1–1352) (human) (UniProt Q9P2D0)
T1 sequence: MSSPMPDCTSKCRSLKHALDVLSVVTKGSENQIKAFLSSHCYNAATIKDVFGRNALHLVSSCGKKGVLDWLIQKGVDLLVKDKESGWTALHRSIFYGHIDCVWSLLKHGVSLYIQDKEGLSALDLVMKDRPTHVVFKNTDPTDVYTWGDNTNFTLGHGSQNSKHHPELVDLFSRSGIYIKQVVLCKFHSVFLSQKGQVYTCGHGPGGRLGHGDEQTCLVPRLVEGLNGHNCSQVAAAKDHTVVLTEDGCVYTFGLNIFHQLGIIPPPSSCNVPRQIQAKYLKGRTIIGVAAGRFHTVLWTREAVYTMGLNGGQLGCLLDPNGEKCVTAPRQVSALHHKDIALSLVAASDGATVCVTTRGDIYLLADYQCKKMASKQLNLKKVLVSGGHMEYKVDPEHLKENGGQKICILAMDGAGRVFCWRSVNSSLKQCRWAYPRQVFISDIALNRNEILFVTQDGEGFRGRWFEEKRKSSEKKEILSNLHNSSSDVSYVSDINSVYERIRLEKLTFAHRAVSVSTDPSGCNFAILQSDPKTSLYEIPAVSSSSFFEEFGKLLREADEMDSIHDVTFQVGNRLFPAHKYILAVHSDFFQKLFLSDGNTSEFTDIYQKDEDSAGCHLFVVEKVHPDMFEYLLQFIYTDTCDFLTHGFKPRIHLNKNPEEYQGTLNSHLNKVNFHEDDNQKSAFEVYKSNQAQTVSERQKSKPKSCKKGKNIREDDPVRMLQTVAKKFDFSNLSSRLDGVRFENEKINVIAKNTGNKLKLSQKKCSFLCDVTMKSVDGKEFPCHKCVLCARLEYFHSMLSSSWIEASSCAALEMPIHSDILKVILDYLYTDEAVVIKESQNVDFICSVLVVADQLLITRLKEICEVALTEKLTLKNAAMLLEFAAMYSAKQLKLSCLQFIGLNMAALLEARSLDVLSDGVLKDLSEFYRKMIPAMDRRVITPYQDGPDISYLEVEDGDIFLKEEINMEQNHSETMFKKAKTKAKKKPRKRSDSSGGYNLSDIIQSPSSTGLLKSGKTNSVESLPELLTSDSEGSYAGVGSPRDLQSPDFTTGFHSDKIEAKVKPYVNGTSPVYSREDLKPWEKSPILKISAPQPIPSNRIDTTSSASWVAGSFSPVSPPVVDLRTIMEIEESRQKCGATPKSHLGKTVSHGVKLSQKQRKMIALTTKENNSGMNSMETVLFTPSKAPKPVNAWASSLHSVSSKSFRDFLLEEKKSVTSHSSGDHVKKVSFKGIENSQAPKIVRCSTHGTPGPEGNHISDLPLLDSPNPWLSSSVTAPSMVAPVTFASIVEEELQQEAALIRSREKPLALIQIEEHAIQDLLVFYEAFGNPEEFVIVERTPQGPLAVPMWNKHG
Assay: affinity purification with mass spectrometry; HEK293T transfected with pCMV6-IBtkα-FLAG or empty vector; extracts (1.5 mg) immunoprecipitated with anti-FLAG antibody (20 μg), SDS-PAGE, in-gel tryptic digestion, nanoLC-MS/MS

| Molecule | binding |
| --- | --- |
| COP9 signalosome complex subunit 4 (from UniProt Q9BT78 1-406) | binds |
| COP9 signalosome complex subunit 3 (from UniProt Q9UNS2-2 1-403) | binds |
| COP9 signalosome complex subunit 2 (from UniProt P61201 1-443) | binds |
| Ubiquitin-like modifier-activating enzyme 1 (from UniProt P22314 1-1058) | binds |
| NEDD8 (from UniProt Q15843 1-76) | binds |
| Cullin-associated NEDD8-dissociated protein 1 (from UniProt Q86VP6 1-1230) | binds |
| B1 | binds |

Results are given in words; binding and its absence hold for the method and conditions named. In cells and extracts the contact can be indirect. A yes stands for co-enrichment or nearness to the bait. Other partners may have been found. Tags and fused reporters may be left off the sequences shown.
